Drawing on publication PMC7819943, “Rice protein-binding microarrays: a tool to detect cis-acting elements near promoter regions in rice”, this text covers binding signal for 42 sequences.

The other results are listed elsewhere or left out.

The target of the assay is T1, OsSMF1 (Oryza sativa, UniProt Q6ZLB0 1-436).
T1 sequence: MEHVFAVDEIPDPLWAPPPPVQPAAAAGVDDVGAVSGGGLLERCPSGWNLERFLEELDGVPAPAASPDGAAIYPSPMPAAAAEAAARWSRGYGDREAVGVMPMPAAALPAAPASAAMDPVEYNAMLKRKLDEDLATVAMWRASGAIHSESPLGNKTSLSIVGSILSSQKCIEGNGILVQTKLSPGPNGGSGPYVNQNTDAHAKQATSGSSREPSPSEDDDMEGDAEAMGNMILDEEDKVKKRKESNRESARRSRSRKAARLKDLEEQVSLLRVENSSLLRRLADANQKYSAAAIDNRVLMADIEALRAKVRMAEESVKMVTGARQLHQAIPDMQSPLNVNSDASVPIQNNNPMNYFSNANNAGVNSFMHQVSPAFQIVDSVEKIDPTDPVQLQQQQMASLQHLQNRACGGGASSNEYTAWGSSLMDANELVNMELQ
Kind of assay: protein-binding microarray (RPBM); PBS, 2% BSA, 51.3 ng/ul salmon testes DNA, 50 uM zinc acetate, 200 nM TF, 25 C, 1 h; high values mean tight binding. The conditions noted are these: protein: recombinant; tags: N-terminal polyhistidine and DsRed monomer fusion (pET32a); chain copies: 2; label: CyDye5-dUTP incorporated in the synthesized complementary strand; 3' TTTTT single-stranded linker to array surface; dsDNA, one strand shown. The essentials: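 In PBS with 2% BSA, salmon testes DNA and 50 µM zinc acetate, 200 nM protein was incubated on a custom Agilent array at 25 °C for 1 h and then washed off. The array had been made double-stranded by primer extension with Cy5-dUTP and blocked with 2% BSA. The proteins were transcription factors fused N-terminally to polyhistidine and DsRed, expressed in E. coli BL21-CodonPlus and purified on Ni–NTA. The binding signal is per-feature fluorescence intensity (arbitrary units) from an Axon 4000B scanner.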
As to “CGGATGGGCTCGGGAGTTTGCCGTCGGCGACGTGGTGTCCCGGAGTCACCTAGTGCAG”, the binding signal was 3950 fluorescence intensity (a.u.).
“GACCCTGTCGCCCACCTCTGGGGCGGCAAGCTGACGTGGCCGGAGTCACCTAGTGCAG”: the binding signal is 27700 fluorescence intensity (a.u.).
Regarding “CTGATCGCTTCTGCGTCACTATTTCTTCTGAAACAATAGCCGGAGTCACCTAGTGCAG”, the binding signal is 3250 fluorescence intensity (a.u.).
The result for “TGCCGCCTCCTGATCCGCATCAGCCGGAGCTCGCCGGCCACGGAGTCACCTAGTGCAG” reads 3520 fluorescence intensity (a.u.).
Turning to “CACTTACACTTTCATCATCACTTTCTGTAAAAGGGAGTGACGGAGTCACCTAGTGCAG”, the binding signal is 23400 fluorescence intensity (a.u.).
Turning to “CTCCCCGGCCCAAAATGCTCGTGGAGTCGTTGTGTTCATGCGGAGTCACCTAGTGCAG”, the binding signal was 3610 fluorescence intensity (a.u.).
As to “ACACCGATGCGGTGTCGATGTGGCGGTACCCGACCTCCAGCGGAGTCACCTAGTGCAG”, the binding signal was 24300 fluorescence intensity (a.u.).
The result for “GGAAGTTCACACGTTGACGTCAAGGAGCATGTGTACTACTCGGAGTCACCTAGTGCAG” reads 5530 fluorescence intensity (a.u.); that for “AAATGCAATTTGACAACTATAAGCCGGCAAGAAAATATTACGGAGTCACCTAGTGCAG”, 3750 fluorescence intensity (a.u.).
Consider “CACGCTGACTCATTAGACACGTAGGATAAAACCGGGATCGCGGAGTCACCTAGTGCAG”, for which the binding signal was 9820 fluorescence intensity (a.u.).
In the case of “GTGTCTAGTACTAGTTTCTTAATGATGTGGAGTTTATGAACGGAGTCACCTAGTGCAG”, the binding signal is 5900 fluorescence intensity (a.u.).
For “CTTAGTACAAATTTGTGGAGTAGCTCTGCCAACTCCGCTCCGGAGTCACCTAGTGCAG” the value was 3240 fluorescence intensity (a.u.).
Regarding “TCACAATCTATAACACGTGGATCCTCATGTGTCTATGATACGGAGTCACCTAGTGCAG”, the binding signal was 8100 fluorescence intensity (a.u.).
For “ATACTTTCGGATGTCGGCAATATCATACCAATTGCCAAGACGGAGTCACCTAGTGCAG” the value was 22400 fluorescence intensity (a.u.); for “ATGCACATATCATACGTGTATATGTGTGTGTGAGTGTATTCGGAGTCACCTAGTGCAG”, 5760 fluorescence intensity (a.u.).
The result for “CTTATCTAATGTTTGCTGAGGTGTCGAAAGCTTTGCATTTCGGAGTCACCTAGTGCAG” reads 6170 fluorescence intensity (a.u.).
Take “AGCAGGGGAGGTGATGTCAGCGTTATAATTGATCTCCCGTCGGAGTCACCTAGTGCAG”: the binding signal is 10600 fluorescence intensity (a.u.).
Turning to “CCTCCATCCTTGTGACTCTCTCCTCTCCATCTCCAAGACTCGGAGTCACCTAGTGCAG”, the binding signal is 4200 fluorescence intensity (a.u.).
For “AGCCTAGTTTCTTCCTTTGTCCACGTGTAATATTTGAAGTCGGAGTCACCTAGTGCAG” the value was 22100 fluorescence intensity (a.u.); for “GGCTTGGTGCGTGGAGCATAGGGAAGACGACGTGGAGACTCGGAGTCACCTAGTGCAG”, 4900 fluorescence intensity (a.u.); for “TGCCTATAAGAGTATGATATACGTGTGTGTTGTGAGCGCCCGGAGTCACCTAGTGCAG”, 4190 fluorescence intensity (a.u.).
In the case of “TCAGAATTCAGCAACTGCATTTGTCAGTCAAACACTGAGGCGGAGTCACCTAGTGCAG”, the binding signal is 27400 fluorescence intensity (a.u.).
In the case of “ACGAAACCGCACAAAAGCCGGTGAATTTTCCCGTAATTTGCGGAGTCACCTAGTGCAG”, the binding signal is 8780 fluorescence intensity (a.u.).
Consider “AAATTCTGACAAAATTGTAACCTTAAAACTGTCAGATTTTCGGAGTCACCTAGTGCAG”, for which the binding signal is 7020 fluorescence intensity (a.u.).
For “TAGCCGCCGCATTTTACTACTGCCCACCACCACCACACCACGGAGTCACCTAGTGCAG”, the binding signal was 3380 fluorescence intensity (a.u.).
Consider “GCCTGATTTACGTTGTTCGTATTGAACGGTACCGAATCAACGGAGTCACCTAGTGCAG”, for which the binding signal was 3550 fluorescence intensity (a.u.).
The result for “CACTGTTTGATGCTAAAACATATTACGTGTGCCGTTCATACGGAGTCACCTAGTGCAG” reads 3580 fluorescence intensity (a.u.).
With “AATAGTTGGCCACTGTGCGTGCGTGGCTGCGTGTGCTTGCCGGAGTCACCTAGTGCAG”, the binding signal was 8850 fluorescence intensity (a.u.).
For “TGGGCTGTATGGGTCGCGCTGGATTTTAGTATCAGTGGATCGGAGTCACCTAGTGCAG” the value was 3630 fluorescence intensity (a.u.); for “TAGCCATCGCCACCACCACCGCCACCGCCACCGCCACGCTCGGAGTCACCTAGTGCAG”, 3840 fluorescence intensity (a.u.).
“TGCAGTGACGGGTTGCTGTCGTTCCAGCTGCAGCTGGCCCCGGAGTCACCTAGTGCAG”: the binding signal is 3160 fluorescence intensity (a.u.).
Consider “TGAGATATATATGATCACGTCACAGGGCGGCACTGGTTCTCGGAGTCACCTAGTGCAG”, for which the binding signal is 3430 fluorescence intensity (a.u.).
“TCCATCCTGCCCACCACGCGGCATATGGTGGGCCTGGCGACGGAGTCACCTAGTGCAG”: the binding signal was 3430 fluorescence intensity (a.u.).
The result for “GGCTGACGCCGTCGTCGTCGTCGTCCGCCCGCACAATCTCCGGAGTCACCTAGTGCAG” reads 3310 fluorescence intensity (a.u.); that for “CCACCCACGGAGCCAGCTCACTACCACCGTTTGTCGCCTCCGGAGTCACCTAGTGCAG”, 4360 fluorescence intensity (a.u.).
“TTTCTCCCATAAAGCCACATCATCTTACTTTTATATTTGACGGAGTCACCTAGTGCAG”: the binding signal is 3960 fluorescence intensity (a.u.).
As to “ACTCTACGATATTATATTTTAGATGATGTGTCATGCTTGCCGGAGTCACCTAGTGCAG”, the binding signal was 15900 fluorescence intensity (a.u.).
For “TCGGCGAAGTCCTCCTCGTTGTAGACGACGGTGAGGAAGACGGAGTCACCTAGTGCAG”, the binding signal is 11600 fluorescence intensity (a.u.).
For “TGCATCCAGTGTTGAACTTTGGGTAGCTATGTTTTCCCATCGGAGTCACCTAGTGCAG” the value was 3450 fluorescence intensity (a.u.); for “GCCTGTTGAGTTTGGATCACTGCCAGCACTTCAGGATGCTCGGAGTCACCTAGTGCAG”, 5300 fluorescence intensity (a.u.).
With “CTTTAAACGTTGGCCTCTTGTTAGTCGATGCAATCATCTTCGGAGTCACCTAGTGCAG”, the binding signal was 3450 fluorescence intensity (a.u.).
For “CTGCCTAGGGTAGGCTCCGCAGTGGGCATCAGCGCCGCGTCGGAGTCACCTAGTGCAG” the value was 3830 fluorescence intensity (a.u.).
